Results: patent publication US9999690B2, “Labeled compounds and methods of imaging, diagnosing cartilage disorders and diseases, and monitoring cartilage health using labeled and unlabeled compounds” (Perosphere Inc., priority 2013, dated 2018)
Values joined by “and” are separate entries in the source; they are usually repeats but may differ in a detail not shown here. Equal values may be shown once. The source gives many values for each of these; only a part stands here.

Columns and labels:
[1] = Rat blood PK and blood to serum ratio, Group 4; type: in vivo
Method: (§1) A study was conducted to determine the pharmacokinetics, rates and routes of excretion with mass baseline and tissue distribution of radioactivity, after a single intravenous dose administration of formula XIII (also referred to as [^14C]DAP) was administered to the rats by tail vein intravenous injection at a
(§2) The study was conducted on 19 male rats divided into 4 groups. The first group of 6 rats was used for blood collection (Group 1); the second group of 4 rats was used for urine, feces, cage rinses and wipes and carcasses collection (Group 2); the third group of 4 rats was used for expired air collection (Group 3); the fourth group of 5 rats was used for terminal blood/serum and tissue distribution by Quantitative Whole-Body Autoradiography (QWBA) (Group 4).
For Group 4, formula XIII (QWBA was run at 1, 8, 12, 24 and 72 hours post dose. After terminal blood collection, each euthanized animal was frozen in a hexane/dry ice bath and embedded in a 2% carboxymethylcellulose matrix according to MPI Research SOP ADME-112. The embedded carcasses were sectioned according to MPI Research SOP ADME-113 on a Leica CM3600 Cyromacrotome set to maintain −10 to −30° C. At least four fortified quality control standards of known radioactive concentration were placed into the frozen block prior to sectioning and used for section thickness quality control. The quality control standards were sectioned under the same conditions as the specimen. The intrasection and intersection variation of collected sections were determined by analyzing the quality control standards. Section variation must be less than 20% for quantitative analysis. Sections that were approximately 40μm thick were taken in the sagittal plane. Appropriate sections selected at various levels of interest in the block were collected to encompass the following tissues, organs, and biological fluids, where possible: adrenal gland, bladder (urinary) and contents (urine), blood (cardiac), bone, bone marrow, brain, eye, fat (brown), fat (white), heart, kidney, large intestine/cecum and contents, liver, lung, muscle, pancreas, prostate, salivary glands, skin, small intestine and contents, spleen, stomach and contents, testes, thymus, thyroid, mesenteric lymph nodes, and epididymis. A set of sections were mounted, exposed to phosphor imaging screens and scanned using the Storm 860 image acquisition system according to MPI Research SOP ADME-112. Quantification, relative to the calibration standards, were performed by image densitometry using MCID™ image analysis software according to MPI Research SOP ADME-114. A standard curve was constructed from the integrated response (MDC/mm2) and the nominal concentrations of the [^14C]Glucose calibration standards. Relative error should be less than 0.5 for each point on the curve. The concentrations of radioactivity were expressed as μCi/g and were converted to μg or ng-equivalents of DAP per gram of sample (μg- or ng-eq/g) using the specific activity of administered [^14C]DAP dose formulation. A lower limit of quantification (LLOQ) was applied to the data. The LLOQ was determined using the radioactive concentration of the lowest calibration standard used to generate a calibration curve divided by the specific activity of the dose formulation (μCi/ug). Artifacts, such as those produced by dislodged contents of the alimentary canal, were excluded from analysis during image analysis.

[2] = Rat mass balance recovery (urine, feces, cage rinses and wipes, carcasses, expired air), Groups 2 and 3; type: in vivo; settings: for Mass Balance Recovery, Urine: rat Group 2, IV dose; for Mass Balance Recovery, Expired Air, Trap 2 / Mass Balance Recovery, Expired Air, Trap 3 / Mass Balance Recovery, Expired Air, Trap 2 Subtotal / Mass Balance Recovery, Expired Air, Trap 3 Subtotal: rat Group 3, IV dose
Method: as §1, §2

[3] = 0-24 hrs, individual rats 301M-304M
[4] = 24-48 hrs, individual rats 301M-304M
[5] = 48-72 hrs, individual rats 301M-304M

## [2H]C1([2H])N(CCCNC(=O)[C@@H](N)CCCNC(=N)N)C([2H])([2H])C([2H])([2H])N(CCCNC(=O)[C@@H](N)CCCNC(=N)N)C1([2H])[2H] [formula XIII]
[1]; rat Group 4, 1 hrs, rat 401M
  Rat Blood PK, Blood: 1602.10
  Rat Blood PK, Serum: 3605.20
[1]; rat Group 4, 8 hrs, rat 402M
  Rat Blood PK, Blood: 147.98
  Rat Blood PK, Serum: 111.94
[1]; rat Group 4, 12 hrs, rat 403M
  Rat Blood PK, Blood: 135.75
  Rat Blood PK, Serum: 73.59
[1]; rat Group 4, 24 hrs, rat 404M
  Rat Blood PK, Blood: 125.15
  Rat Blood PK, Serum: 55.21
[1]; rat Group 4, 72 hrs, rat 405M
  Rat Blood PK, Blood: 29.93
  Rat Blood PK, Serum: 11.84
[2]; 0-8 hrs, Mean
  Mass Balance Recovery, Urine: 73.79
[2]; 0-8 hrs, individual rats 201M-204M
  Mass Balance Recovery, Urine: 71.47 and 75.10 and 71.13 and 77.45
[2]; 8-24 hrs, Mean
  Mass Balance Recovery, Urine: 9.50
[2]; 8-24 hrs, individual rats 201M-204M
  Mass Balance Recovery, Urine: 11.56 and 9.15 and 9.65 and 7.62
[2]; 0-24 hrs, Mean
  Mass Balance Recovery, Expired Air, Trap 2: 0.02
  Mass Balance Recovery, Expired Air, Trap 3: 0.01
[2]; [3]
  Mass Balance Recovery, Expired Air, Trap 2: 0.02
  Mass Balance Recovery, Expired Air, Trap 3: 0.01
[2]; 24-48 hrs, Mean
  Mass Balance Recovery, Expired Air, Trap 2: 0.00
  Mass Balance Recovery, Expired Air, Trap 3: 0.00
[2]; [4]
  Mass Balance Recovery, Expired Air, Trap 2: 0.00
  Mass Balance Recovery, Expired Air, Trap 3: 0.00
[2]; 48-72 hrs, Mean
  Mass Balance Recovery, Expired Air, Trap 2: 0.00
  Mass Balance Recovery, Expired Air, Trap 3: 0.00
[2]; [5]
  Mass Balance Recovery, Expired Air, Trap 2: 0.00
  Mass Balance Recovery, Expired Air, Trap 3: 0.00
[2]; Mean
  Mass Balance Recovery, Expired Air, Trap 2 Subtotal: 0.02
  Mass Balance Recovery, Expired Air, Trap 3 Subtotal: 0.01
[2]; individual rats 301M-304M
  Mass Balance Recovery, Expired Air, Trap 2 Subtotal: 0.02
  Mass Balance Recovery, Expired Air, Trap 3 Subtotal: 0.01
